Legend:
CEM-C7 = experiment: Cell proliferation / cytotoxicity assay; type: cell-based; conditions: for Selectivity Factor: SF = IC50 Leukemia (CEMC7)/IC50 Adherent cells
Protocol: HeLa, MCF-7, HCT-116, and CEM-C7 were obtained from the American Type Culture Collection (Manassas, Va., USA). All adherent cell lines were maintained in Dulbecco's modified Eagle's medium (Mediatech) with 100 U/ml penicillin (Invitrogen), 100 μg/ml streptomycin (Invitrogen), 0.25 μg/ml amphotericin B (Invitrogen), and 10% fetal bovine serum (USA Scientific) and incubated at 37° C. with 5% CO2. CEM cells were maintained in RPMI-1640 media supplemented with 100 U/ml penicillin, 100 μg/ml streptomycin, 0.25 μg/ml amphotericin B, and 10% fetal bovine serum and incubated at 37° C. with […].
Cells were plated at a density of 7,000-13,000/well in 200 μl of media overnight in a 96-well plate. Each (phosphine)gold(I)-indole was added to wells in a dose-dependent manner (0.01-100 μM). Cells were treated with compounds for variable time periods (8-48 hours). With adherent cell lines, medium was removed from the wells and then 100 μl of fresh medium was added into each well followed by the addition of 20 μl of cell titer-blue reagent (Promega). Cells were incubated with reagent for 1-4 hrs and the optical density of samples was read at 560 nm using a microplate reader. The background absorbance of dye with media was subtracted from each sample. Cell viability was then normalized against cells treated with DMSO. IC50 values were obtained using a fit of the data to Equation 1: Y=100%/[1+(IC50/Inhibitor)] (1)
where y is the fraction of viable cells, IC50 is the concentration of inhibitor that inhibits 50% cell growth, and Inhibitor is the concentration of compound tested.
The cellular effects of these (phosphine)gold(I) indoles were tested against several cancer cell lines including HeLa (cervical cancer), MCF-7 (breast cancer), HCT-116 (colon cancer), and CEM-C7 (leukemia). The dose-dependency of each modified indole on cell viability was assessed using a cell-titer blue assay as previously described. In these experiments, cells were exposed to variable concentrations of each (phosphine)gold(I) indole (0.01-100 μM) for up to 48 hours and then assessed for viability.
Defining this mechanism of cell death is important as necrosis can cause various side-effects including septic shock and kidney failure that can obviously compromise patient health.

panel of 64 kinases = experiment: Kinase inhibition screening, whole panel (Luceome Biotechnologies); type: biochemical, human; conditions: 10˜M of compound

Row | SMILES | Selectivity Factor (CEM-C7) | number of kinases showing greater than 20% inhibition (panel of 64 kinases) | fold lower LD50 than that measured for compound 3 and 4 (CEM-C7; CEM-C7)
1 | CC(C)(C)OC(=O)n1ccc2c[c]([Au-][P+](c3ccccc3)(c3ccccc3)c3ccccc3)ccc21 [Compound 3, 5-{Triphenylphosphine aurate(I)}-tert-butyl1H-indole-1-carboxylate] | 1.2-8.0 | six | 
2 | CC(C)(C)OC(=O)n1ccc2c[c]([Au-][P+](c3ccccc3-c3ccccc3)(C3CCCCC3)C3CCCCC3)ccc21 [Compound 5, 5-{[1,1′-biphenyl]-2-yldicyclohexylphosphine aurate(I)}-tert-butyl H-indole-1-carboxylate] | 0.6-0.9 |  | 
3 | [Au+].[Br-].c1ccc(P(c2ccccc2)c2ccccc2)cc1 [BrAuPPh3, reference compound] |  |  | 40-80 fold
4 | CC(C)(C)C(=O)OCn1ccc2c[c]([Au-][P+](c3ccccc3-c3ccccc3)(C3CCCCC3)C3CCCCC3)ccc21 [Compound 6, 5-{[1,1′-biphenyl]-2-yldicyclohexylphosphine aurate(I)}-(1H-indol-1-yl)methyl pivalate] | 0.2-0.6 |  | 
5 | Cn1ccc2c[c]([Au-][P+](c3ccccc3-c3ccccc3)(C3CCCCC3)C3CCCCC3)ccc21 [Compound 7, 5-{[1,1′-biphenyl]-2-yldicyclohexylphosphine aurate(I)}-1-methyl-1H-indole] | 0.4-3.8 |  | 
6 | CC(C)(C)OC(=O)n1ccc2c[c]([Au-][P+](C3CCCCC3)(C3CCCCC3)C3CCCCC3)ccc21 [Compound 4, 5-{Tricyclohexylphosphine aurate(I)}-tert-butyl1H-indole-1-carboxylate] | 0.3-0.6 | 18 | 

Source: US9821173B2, “Anti-cancer agents and methods of use” (Case Western Reserve University, priority 2013, dated 2017)
